PubChem BioAssay AID1259308 | NCATS – 2017

- Aim: 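Candidate targets for better recombinant protein yield in mammalian cells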 (primary screen)
- Cells: human HEK293 embryonic kidney cells stably expressing firefly luciferase (HEK-CMV-Luc2-Hygro)
- Reagents: single siRNA against human genes, 0.8 pmol siRNA per well
- Time to read-out: 72 h
- Detection: 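Reporter luminescence and viable-cell signal on separate replicate plates, given as percent of non-targeting control and median/MAD z-scores, plus per-cell luciferase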
- Direction: total luciferase, z-score and total luciferase, % of control: higher = more reporter protein produced
- Call rule: 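An siRNA counts as active if its total luciferase robust z-score exceeds 3; genes with two or more such siRNAs out of three were retested with fresh siRNAs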
- Calls: active = raised luciferase; inactive = no rise
Shown is an unselected part of about 59,000 reagents tested. Over the whole deposit, about 1,510 (2.6%) were called active. 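Calls use total luciferase alone and ignore viability, so some active siRNAs may act by altering cell number.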 Reagents against one gene are numbered here. Further read-outs or replicates are left out here.

TRIM22 #1: total luciferase, z-score = 2.74; total luciferase, % of control = 136; Call = inactive
TRIM22 #2: total luciferase, z-score = 1.57; total luciferase, % of control = 113; Call = inactive
TRIM22 #3: total luciferase, z-score = 0.635; total luciferase, % of control = 94.5; Call = inactive
MALSU1 #1: total luciferase, z-score = 1.74; total luciferase, % of control = 117; Call = inactive
MALSU1 #2: total luciferase, z-score = 2.73; total luciferase, % of control = 136; Call = inactive
MALSU1 #3: total luciferase, z-score = -0.823; total luciferase, % of control = 65.5; Call = inactive

2 entries from above, sorted by “total luciferase, z-score”, lowest first:
TRIM22 #2: total luciferase, z-score = 1.57; total luciferase, % of control = 113; Call = inactive
TRIM22 #1: total luciferase, z-score = 2.74; total luciferase, % of control = 136; Call = inactive

Continued.
GDF3 #1: total luciferase, z-score = 2.18; total luciferase, % of control = 125; Call = inactive
GDF3 #2: total luciferase, z-score = 0.287; total luciferase, % of control = 87.6; Call = inactive
GDF3 #3: total luciferase, z-score = 0.237; total luciferase, % of control = 86.6; Call = inactive
CD8B #1: total luciferase, z-score = -0.259; total luciferase, % of control = 76.7; Call = inactive
CD8B #2: total luciferase, z-score = -0.169; total luciferase, % of control = 78.5; Call = inactive
CD8B #3: total luciferase, z-score = -0.133; total luciferase, % of control = 79.2; Call = inactive
